Measured values: the supplement of paper PMC10849652
This is one part of the list. Residues, ends and D or L forms follow the SMILES beside them. *: point of attachment. Cbz = O=C(OCc1ccccc1)*

Amino acid sequences for entries named in this document (tags omitted). A change or cut given only in a name is not applied to a line headed by its entry.
UniProt P42574: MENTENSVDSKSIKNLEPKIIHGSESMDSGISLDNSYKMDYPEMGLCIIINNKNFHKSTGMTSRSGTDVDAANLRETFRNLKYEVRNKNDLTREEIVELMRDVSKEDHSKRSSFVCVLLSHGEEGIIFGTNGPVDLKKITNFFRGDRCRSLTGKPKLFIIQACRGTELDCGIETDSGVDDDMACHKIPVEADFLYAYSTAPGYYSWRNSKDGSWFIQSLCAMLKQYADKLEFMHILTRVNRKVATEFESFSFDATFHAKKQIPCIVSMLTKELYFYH
UniProt P30281: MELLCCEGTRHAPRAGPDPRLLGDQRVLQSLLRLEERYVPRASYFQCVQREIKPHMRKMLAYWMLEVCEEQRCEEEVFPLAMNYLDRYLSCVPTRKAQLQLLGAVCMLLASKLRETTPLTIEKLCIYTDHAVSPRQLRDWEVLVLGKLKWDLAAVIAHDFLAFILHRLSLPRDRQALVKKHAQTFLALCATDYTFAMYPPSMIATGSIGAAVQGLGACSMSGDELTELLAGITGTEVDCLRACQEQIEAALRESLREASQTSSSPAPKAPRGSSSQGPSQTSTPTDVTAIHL
UniProt Q9UIB8: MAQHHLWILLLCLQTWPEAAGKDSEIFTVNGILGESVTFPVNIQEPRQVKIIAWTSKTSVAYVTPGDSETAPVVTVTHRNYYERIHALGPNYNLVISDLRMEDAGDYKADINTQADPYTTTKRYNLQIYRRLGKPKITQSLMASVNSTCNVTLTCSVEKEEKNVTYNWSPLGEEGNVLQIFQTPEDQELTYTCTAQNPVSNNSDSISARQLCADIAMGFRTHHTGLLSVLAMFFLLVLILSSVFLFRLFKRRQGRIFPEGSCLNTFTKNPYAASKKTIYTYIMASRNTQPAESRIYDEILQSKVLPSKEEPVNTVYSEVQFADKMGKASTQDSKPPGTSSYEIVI
UniProt Q14790: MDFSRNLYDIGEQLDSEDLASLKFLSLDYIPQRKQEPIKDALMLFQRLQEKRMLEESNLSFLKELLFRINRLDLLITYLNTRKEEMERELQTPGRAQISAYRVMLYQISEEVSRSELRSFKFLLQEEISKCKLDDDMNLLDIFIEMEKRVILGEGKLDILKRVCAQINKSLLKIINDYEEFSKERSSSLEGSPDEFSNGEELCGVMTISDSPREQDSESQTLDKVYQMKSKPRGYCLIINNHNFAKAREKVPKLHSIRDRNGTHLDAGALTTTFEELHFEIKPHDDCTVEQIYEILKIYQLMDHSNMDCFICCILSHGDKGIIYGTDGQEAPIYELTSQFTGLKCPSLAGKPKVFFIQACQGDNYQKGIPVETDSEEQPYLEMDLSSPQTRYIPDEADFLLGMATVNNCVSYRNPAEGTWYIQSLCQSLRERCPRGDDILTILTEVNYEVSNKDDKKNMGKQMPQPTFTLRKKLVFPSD
UniProt O60508: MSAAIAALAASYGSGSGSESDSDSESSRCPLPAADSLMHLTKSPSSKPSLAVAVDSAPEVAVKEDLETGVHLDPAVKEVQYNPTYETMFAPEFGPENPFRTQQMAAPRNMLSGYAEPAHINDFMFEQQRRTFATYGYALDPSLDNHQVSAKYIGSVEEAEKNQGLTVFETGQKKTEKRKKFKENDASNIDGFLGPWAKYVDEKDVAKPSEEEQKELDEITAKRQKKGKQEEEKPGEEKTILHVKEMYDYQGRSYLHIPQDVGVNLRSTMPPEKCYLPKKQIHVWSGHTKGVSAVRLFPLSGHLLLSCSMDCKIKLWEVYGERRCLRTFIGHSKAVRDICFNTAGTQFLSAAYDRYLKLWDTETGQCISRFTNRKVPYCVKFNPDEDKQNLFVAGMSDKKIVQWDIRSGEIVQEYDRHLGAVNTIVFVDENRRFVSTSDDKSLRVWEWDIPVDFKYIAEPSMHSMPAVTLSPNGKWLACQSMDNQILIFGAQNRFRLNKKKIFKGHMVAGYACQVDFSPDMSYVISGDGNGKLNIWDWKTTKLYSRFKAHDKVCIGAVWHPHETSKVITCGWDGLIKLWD
UniProt P30305: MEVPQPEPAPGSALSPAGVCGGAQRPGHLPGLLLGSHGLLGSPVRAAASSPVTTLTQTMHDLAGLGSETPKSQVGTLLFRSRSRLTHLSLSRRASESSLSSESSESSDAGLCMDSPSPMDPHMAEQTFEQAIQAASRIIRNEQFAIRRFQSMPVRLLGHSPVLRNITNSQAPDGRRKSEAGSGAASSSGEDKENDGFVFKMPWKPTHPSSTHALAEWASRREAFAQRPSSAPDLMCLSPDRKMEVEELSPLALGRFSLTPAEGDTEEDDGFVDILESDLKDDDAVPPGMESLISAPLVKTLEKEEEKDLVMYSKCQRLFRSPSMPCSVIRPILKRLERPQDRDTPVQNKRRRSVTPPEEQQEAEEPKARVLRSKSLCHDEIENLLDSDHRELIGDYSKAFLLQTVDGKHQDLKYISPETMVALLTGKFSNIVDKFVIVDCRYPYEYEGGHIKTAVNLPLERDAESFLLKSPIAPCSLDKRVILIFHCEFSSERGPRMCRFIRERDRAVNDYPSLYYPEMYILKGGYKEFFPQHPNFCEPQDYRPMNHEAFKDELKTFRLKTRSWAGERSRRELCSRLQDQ
UniProt P19397: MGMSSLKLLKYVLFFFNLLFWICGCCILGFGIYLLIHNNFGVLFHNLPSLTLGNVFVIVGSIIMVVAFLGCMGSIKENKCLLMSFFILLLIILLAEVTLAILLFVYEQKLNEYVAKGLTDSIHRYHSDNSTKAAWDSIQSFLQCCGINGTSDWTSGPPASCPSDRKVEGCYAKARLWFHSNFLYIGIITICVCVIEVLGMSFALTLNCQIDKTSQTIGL
UniProt P42575: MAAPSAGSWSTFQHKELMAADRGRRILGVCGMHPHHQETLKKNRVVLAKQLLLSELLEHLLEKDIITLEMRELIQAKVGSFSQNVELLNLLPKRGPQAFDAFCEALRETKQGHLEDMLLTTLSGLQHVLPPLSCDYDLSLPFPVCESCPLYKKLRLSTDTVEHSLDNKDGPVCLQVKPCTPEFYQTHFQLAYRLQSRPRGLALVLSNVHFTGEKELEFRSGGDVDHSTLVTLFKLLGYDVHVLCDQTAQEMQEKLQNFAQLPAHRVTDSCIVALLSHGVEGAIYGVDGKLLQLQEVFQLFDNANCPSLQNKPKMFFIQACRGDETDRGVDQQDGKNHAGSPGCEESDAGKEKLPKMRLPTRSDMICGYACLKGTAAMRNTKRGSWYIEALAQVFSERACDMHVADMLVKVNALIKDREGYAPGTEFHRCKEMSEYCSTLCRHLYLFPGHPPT
UniProt Q75N03: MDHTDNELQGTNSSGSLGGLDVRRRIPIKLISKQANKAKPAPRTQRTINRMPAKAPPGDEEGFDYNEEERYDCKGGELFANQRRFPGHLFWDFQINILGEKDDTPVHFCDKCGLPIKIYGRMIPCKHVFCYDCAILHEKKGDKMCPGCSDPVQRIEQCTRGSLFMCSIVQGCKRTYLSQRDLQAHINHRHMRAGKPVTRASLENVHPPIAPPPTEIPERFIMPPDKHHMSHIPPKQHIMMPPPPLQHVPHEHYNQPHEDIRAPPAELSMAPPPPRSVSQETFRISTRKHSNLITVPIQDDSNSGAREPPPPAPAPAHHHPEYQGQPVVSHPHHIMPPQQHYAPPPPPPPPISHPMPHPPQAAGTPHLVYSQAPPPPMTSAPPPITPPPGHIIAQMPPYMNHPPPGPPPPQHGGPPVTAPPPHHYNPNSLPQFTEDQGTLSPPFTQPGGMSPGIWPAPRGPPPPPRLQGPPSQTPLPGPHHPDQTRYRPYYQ
UniProt P45973, whole entry, looked up: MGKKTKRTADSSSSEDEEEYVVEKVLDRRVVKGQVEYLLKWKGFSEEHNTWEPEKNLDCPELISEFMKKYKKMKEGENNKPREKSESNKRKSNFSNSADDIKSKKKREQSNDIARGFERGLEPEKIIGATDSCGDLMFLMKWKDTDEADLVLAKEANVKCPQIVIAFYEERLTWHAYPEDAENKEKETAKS

How the values were obtained:
Assay in all cases: log2 fold change, soluble protein after heating vs DMSO (PISA); higher = thermal stabilisation; K562 cells, 10 uM, 30 min; active = over 0.2 and 3.5 SD of the protein, either way, in both replicates (recomputed)
erlotinib = compound: C#Cc1cccc(Nc2ncnc3cc(OCCOC)c(OCCOC)cc23)c1 [erlotinib]
Procedure, shortened: (§1)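 Aliquots of K562 cells (2×10^6 cells/mL) treated with 10 μM compound for 30 min were heated for 3 min over 48°C-58°C. After pooling and extraction in PBS with 0.5% NP-40 at 4°C, soluble protein from a 21,000xg, 90 min spin was quantified by TMTpro 16plex LC-MS/MS with channel sums equalised. Thermal stability is expressed against control samples, from duplicates, as a log2 fold change.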

[1] = compound: C/C(=N\NC(=O)C1=CC(=CC=C1)S(=O)(=O)N2CCOCC2)/C3=C(C=CC(=C3)Cl)O
Procedure, shortened: as §1

[2] = compound: C1=CC(=C(C=C1Cl)C2=NC3=NC=CN=C3C(=N2)NC4=CC=NC=C4)F
Procedure, shortened: as §1

[3] = compound: C1=CC(=CC=C1C2=NC3=C(N2)C=C(C=C3)C(=O)N)OC4=CC=C(C=C4)Cl
Procedure, shortened: as §1

[4] = compound: C1=CC2=C(C=CC(=C2)/C=C\3/C(=O)NC(=NCC4=CC=CS4)S3)N=C1
Procedure, shortened: as §1

[5] = compound: C1=CC2=NC=CN=C2C=C1/C=C/3\C(=O)NC(=O)S3
Procedure, shortened: as §1

[6] = compound: C1=CC=C(C=C1)C2=NC(=C(N2)C3=CC=NC=C3)C4=CC(=C(C=C4)Cl)O
Procedure, shortened: as §1

[7] = compound: C1=CC=C2C(=C1)C3=NNC4=CC=CC(=C43)C2=O
Procedure, shortened: as §1

[8] = compound: C1CCN(C1)C(=O)NC2=CC=CC(=C2)NC3=NC=C(C(=N3)NCCC4=CN=CN4)Br
Procedure, shortened: as §1

[9] = compound: C1CN(CCC1(CC2=CC=C(C=C2)Cl)N)C3=NC=NC4=C3C=CN4
Procedure, shortened: as §1

IRAK-1-4 Inhibitor I = compound: C1COCCN1CCN2C3=CC=CC=C3N=C2NC(=O)C4=CC(=CC=C4)[N+](=O)[O-] [IRAK-1-4 Inhibitor I]
Procedure, shortened: as §1

ibrutinib = compound: C=CC(=O)N1CCC[C@@H](n2nc(-c3ccc(Oc4ccccc4)cc3)c3c(N)ncnc32)C1 [ibrutinib]
Procedure, shortened: as §1

[10] = compound: CC(=O)c1cnc2ccc(-c3cc(Cl)c(O)c(Cl)c3)nc2c1N[C@H]1CC[C@H](CN(C)C)CC1
Procedure, shortened: as §1

ralimetinib = compound: CC(C)(C)Cn1c(N)nc2ccc(-c3[nH]c(C(C)(C)C)nc3-c3ccc(F)cc3)nc21 [ralimetinib]
Procedure, shortened: as §1

[11] = compound: CC(C)(O)CC(=O)NCCn1ccc2ncnc(Nc3ccc(Oc4cccc(C(F)(F)F)c4)c(Cl)c3)c21
Procedure, shortened: as §1

[12] = compound: CC(C)C1=C2N=C(C=C(N2N=C1)NCC3=CC=CC=C3)NCCCCCCN
Procedure, shortened: as §1

[13] = compound: CC(C)C[C@@H](C=O)NC(=O)[C@H](CC(C)C)NC(=O)[C@H](CC(C)C)NC(=O)OCc1ccccc1
Procedure, shortened: as §1

pinometostat = compound: CC(C)N(C[C@H]1O[C@@H](n2cnc3c(N)ncnc32)[C@H](O)[C@@H]1O)[C@H]1C[C@@H](CCc2nc3cc(C(C)(C)C)ccc3[nH]2)C1 [pinometostat]
Procedure, shortened: as §1

[14] = compound: CC1=C(C2=C(C=C1)C(=O)C3=CC=CC=C3N2CCCN)C
Procedure, shortened: as §1

[15] = compound: CC1=C(C(CC(=O)N1)C2=CC=C(C=C2)C(F)(F)F)C(=O)NC3=C(C=C4C(=C3)C=NN4)F
Procedure, shortened: as §1

Measured: log2 fold change

CASP3 (UniProt P42574)
inactive: erlotinib -0.014 | [1] -0.021 | [2] 0.238 | [3] 0.006 | [4] -0.005 | [5] -0.001 | [6] 0.086 | [7] 0.015 | [8] -0.028 | [9] 0.093 | IRAK-1-4 Inhibitor I 0.074 | ibrutinib 0.008 | [10] 0 | ralimetinib -0.022 | [11] 0.043 | [12] 0.048 | [13] 0.067 | pinometostat -0.076 | [14] 0.05

CCND3 (UniProt P30281)
inactive: erlotinib -0.028 | [1] -0.025 | [2] -0.081 | [3] 0.036 | [4] 0.143 | [5] 0.289 | [6] 0.047 | [7] -0.001 | [8] 0.09 | [9] -0.043 | ibrutinib -0.063 | [10] 0.078 | ralimetinib -0.076 | [11] 0 | [12] -0.303 | [13] 0.341 | [14] -0.088

CD84 (UniProt Q9UIB8)
inactive: erlotinib 0.131 | [1] 0.052 | [2] -0.027 | [3] 0.099 | [4] 0.01 | [7] 0.033 | [8] -0.032 | [9] 0.111 | [10] -0.166 | [11] 0.068 | [12] 0.024 | [14] 0.233

CASP8 isoform 9 (UniProt Q14790)
inactive: erlotinib -0.008 | [1] 0.056 | [2] -0.055 | [3] -0.023 | [4] 0.021 | [5] 0.052 | [6] -0.078 | [7] 0.104 | [8] -0.051 | [9] -0.014 | IRAK-1-4 Inhibitor I -0.056 | ibrutinib -0.027 | [10] 0.098 | ralimetinib -0.058 | [11] -0.092 | [12] -0.264 | [13] -0.025 | pinometostat 0.124 | [14] 0

CDC40 (UniProt O60508)
inactive: erlotinib -0.166 | [1] -0.307 | [2] -0.44 | [3] -0.001 | [4] -0.139 | [5] -0.02 | [7] -0.037 | [8] -0.009 | [9] 0.167 | IRAK-1-4 Inhibitor I -0.161 | ibrutinib 0.136 | [10] 0.694 | [11] 0.124 | [12] 0.307 | pinometostat 0.216 | [15] 0.062 | [14] 0.103

CDC25B isoform 4 (UniProt P30305)
inactive: erlotinib -0.031 | [1] 0.117 | [2] 0.036 | [3] 0.044 | [4] -0.062 | [5] 0.131 | [6] -0.007 | [7] -0.047 | IRAK-1-4 Inhibitor I 0.068 | ibrutinib 0.037 | [10] -0.302 | ralimetinib 0.079 | [11] -0.049 | [12] 0.021 | [13] -0.02 | pinometostat 0.007

CD53 (UniProt P19397)
inactive: erlotinib 0.041 | [1] 0.028 | [2] 0.059 | [3] -0.006 | [4] 0.064 | [5] 0.01 | [6] -0.221 | [7] -0.086 | [8] -0.001 | [9] -0.007 | IRAK-1-4 Inhibitor I 0.097 | ibrutinib 0.033 | [10] -0.026 | ralimetinib -0.24 | [11] -0.021 | [12] 0.229 | [13] 0.051 | pinometostat -0.014 | [14] 0.105

CASP2 (UniProt P42575)
inactive: erlotinib 0.069 | [1] -0.007 | [2] 0.056 | [3] -0.011 | [4] 0.054 | [5] -0.025 | [6] -0.011 | [7] 0.028 | [8] 0.004 | [9] -0.053 | IRAK-1-4 Inhibitor I 0.017 | ibrutinib 0.027 | [10] 0 | ralimetinib -0.074 | [11] -0.073 | [12] -0.082 | [13] 0.072 | pinometostat -0.013 | [14] 0.091

CBLL1 (UniProt Q75N03)
inactive: erlotinib 0.058 | [1] -0.007 | [3] -0.01 | [4] -0.111 | [6] 0.095 | [7] 0.036 | [8] -0.077 | [9] 0.113 | IRAK-1-4 Inhibitor I 0.138 | [10] 0.08 | ralimetinib 0.061 | [12] 0.024 | [13] 0.023 | pinometostat -0.037 | [15] 0.525 | [14] 0.003

CBX5 (UniProt P45973)
active: [14] -0.545
inactive: erlotinib -0.018 | [1] 0.08 | [2] 0 | [3] 0.043 | [4] 0.111 | [5] 0.025 | [6] 0.003 | [7] -0.028 | [8] -0.002 | [9] -0.015 | IRAK-1-4 Inhibitor I -0.076 | ibrutinib 0.002 | [10] -0.102 | ralimetinib -0.002 | [11] 0.056 | [12] -0.067 | [13] -0.001 | pinometostat -0.058
